Experimental data from doi:10.1101/766808.
No constants are given. Whether binding was seen depends on the method and setting. Binding seen in cells or lysates may run through a third protein. These calls come from enrichment with a bait or labelling near it, and not all partners need be listed. For part of these data: No binding means not detected with the bait.

Legend:
Assay in all cases: affinity purification with mass spectrometry
[1] = molecular target: T1, IFI35 (human (endogenous in HeLa)) (UniProt P80217)
T1 sequence: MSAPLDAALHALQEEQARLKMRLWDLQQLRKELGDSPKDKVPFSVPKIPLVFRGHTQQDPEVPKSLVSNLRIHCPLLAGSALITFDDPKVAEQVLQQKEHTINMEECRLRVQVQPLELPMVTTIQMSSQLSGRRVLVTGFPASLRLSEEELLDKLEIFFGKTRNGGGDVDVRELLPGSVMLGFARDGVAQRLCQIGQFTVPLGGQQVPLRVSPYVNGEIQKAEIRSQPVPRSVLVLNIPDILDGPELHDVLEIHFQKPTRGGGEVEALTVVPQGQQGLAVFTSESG

[2] = molecular target: T2, NMI (human (endogenous in HeLa)) (UniProt Q13287)
T2 sequence: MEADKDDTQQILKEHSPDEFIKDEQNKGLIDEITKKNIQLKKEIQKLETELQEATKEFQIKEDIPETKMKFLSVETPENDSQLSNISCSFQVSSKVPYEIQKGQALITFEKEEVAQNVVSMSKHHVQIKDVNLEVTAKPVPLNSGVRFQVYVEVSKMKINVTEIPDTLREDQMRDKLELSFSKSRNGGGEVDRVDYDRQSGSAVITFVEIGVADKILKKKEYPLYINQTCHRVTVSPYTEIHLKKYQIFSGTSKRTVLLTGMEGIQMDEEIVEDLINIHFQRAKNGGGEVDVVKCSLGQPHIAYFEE

[3] = molecular target: T3, NMI (human (endogenous in HeLa)), Q13287; details: remark: other sources report otherwise
T3 chain: T2 sequence

B1: NMI (protein, UniProt Q13287 1-307)
chain: T2 sequence
[1]
  binding: binds

B2: IFI35 (protein, UniProt P80217 1-286)
chain: T1 sequence
[2]
  binding: binds

B3: STAT1, P42224 1-750 (protein)
chain: MSQWYELQQLDSKFLEQVHQLYDDSFPMEIRQYLAQWLEKQDWEHAANDVSFATIRFHDLLSQLDDQYSRFSLENNFLLQHNIRKSKRNLQDNFQEDPIQMSMIIYSCLKEERKILENAQRFNQAQSGNIQSTVMLDKQKELDSKVRNVKDKVMCIEHEIKSLEDLQDEYDFKCKTLQNREHETNGVAKSDQKQEQLLLKKMYLMLDNKRKEVVHKIIELLNVTELTQNALINDELVEWKRRQQSACIGGPPNACLDQLQNWFTIVAESLQQVRQQLKKLEELEQKYTYEHDPITKNKQVLWDRTFSLFQQLIQSSFVVERQPCMPTHPQRPLVLKTGVQFTVKLRLLVKLQELNYNLKVKVLFDKDVNERNTVKGFRKFNILGTHTKVMNMEESTNGSLAAEFRHLQLKEQKNAGTRTNEGPLIVTEELHSLSFETQLCQPGLVIDLETTSLPVVVISNVSQLPSGWASILWYNMLVAEPRNLSFFLTPPCARWAQLSEVLSWQFSSVTKRGLNVDQLNMLGEKLLGPNASPDGLIPWTRFCKENINDKNFPFWLWIESILELIKKHLLPLWNDGCIMGFISKERERALLKDQQPGTFLLRFSESSREGAITFTWVERSQNGGEPDFHAVEPYTKKELSAVTFPDIIRNYKVMAAENIPENPLKYLYPNIDKDHAFGKYYSRPKEAPEPMELDGPKGTGYIKTELISVSEVHPSRLQTTDNLLPMSPEEFDEVSRIVGSVEFDSMMNTV
[3]
  binding: no binding
